Data: article PMC5515574

Key:
[1] = molecular target: mutant T238V yeast αβ-tubulin (T238V in Tub2p, β-tubulin) (yeast (S. cerevisiae)); experiment: fluorescence imaging of microtubule decoration in vitro; wild-type or T238V yeast microtubules grown in 1 mM GTP in the presence of 50 nM Bim1-GFP; fluorescence intensity along growing microtubules; both purified
[2] = molecular target: wild-type yeast αβ-tubulin with a His6 tag fused to the C-terminus of β-tubulin (yeast (S. cerevisiae)); experiment: as above

binding [1]: binds
binding [2]: binds
B1: Bim1-GFP (protein, UniProt P40013 1-344)
chain: MSAGIGESRTELLTWLNGLLNLNYKKIEECGTGAAYCQIMDSIYGDLPMNRVKFNATAEYEFQTNYKILQSCFSRHGIEKTVYVDKLIRCKFQDNLEFLQWLKKHWIRHKDESVYDPDARRKYRPIITNNSATKPRTVSNPTTAKRSSSTGTGSAMSGGLATRHSSLGINGSRKTSVTQGQLVAIQAELTKSQETIGSLNEEIEQYKGTVSTLEIEREFYFNKLRDIEILVHTTQDLINEGVYKFNDETITGHGNGNGGALLRFVKKVESILYATAEGFEMNDGEDELNDKNLGEHGTVPNQGGYANSNGEVNGNEGSNHDVIMQNDEGEVGVSNNLIIDEETF

These are yes or no findings as the source states them, for the method shown. A result given as binding can be weak or reduced; the word gives no strength. Tags and fused reporters may be left off the sequences shown.
